Results taken from the supplement of paper PMC7666118.
This is one part of the list.

Amino acid sequences for entries named in this document (tags omitted). A change or cut given only in a name is not applied to a line headed by its entry.
UniProt Q96G25: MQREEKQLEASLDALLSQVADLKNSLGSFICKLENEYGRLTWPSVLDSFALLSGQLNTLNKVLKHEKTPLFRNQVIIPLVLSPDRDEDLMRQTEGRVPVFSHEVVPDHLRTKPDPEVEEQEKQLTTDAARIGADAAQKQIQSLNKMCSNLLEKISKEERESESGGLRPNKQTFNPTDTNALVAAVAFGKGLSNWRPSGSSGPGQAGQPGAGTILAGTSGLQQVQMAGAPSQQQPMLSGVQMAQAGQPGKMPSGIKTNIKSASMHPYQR
UniProt P51948: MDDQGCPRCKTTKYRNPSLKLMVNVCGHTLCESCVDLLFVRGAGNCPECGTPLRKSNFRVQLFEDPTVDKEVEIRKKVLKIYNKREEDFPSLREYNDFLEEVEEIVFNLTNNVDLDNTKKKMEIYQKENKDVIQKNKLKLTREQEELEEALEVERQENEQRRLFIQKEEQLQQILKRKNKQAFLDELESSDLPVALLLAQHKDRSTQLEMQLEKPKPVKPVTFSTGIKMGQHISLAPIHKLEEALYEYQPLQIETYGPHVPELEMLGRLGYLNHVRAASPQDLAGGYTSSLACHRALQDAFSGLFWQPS
UniProt P52701: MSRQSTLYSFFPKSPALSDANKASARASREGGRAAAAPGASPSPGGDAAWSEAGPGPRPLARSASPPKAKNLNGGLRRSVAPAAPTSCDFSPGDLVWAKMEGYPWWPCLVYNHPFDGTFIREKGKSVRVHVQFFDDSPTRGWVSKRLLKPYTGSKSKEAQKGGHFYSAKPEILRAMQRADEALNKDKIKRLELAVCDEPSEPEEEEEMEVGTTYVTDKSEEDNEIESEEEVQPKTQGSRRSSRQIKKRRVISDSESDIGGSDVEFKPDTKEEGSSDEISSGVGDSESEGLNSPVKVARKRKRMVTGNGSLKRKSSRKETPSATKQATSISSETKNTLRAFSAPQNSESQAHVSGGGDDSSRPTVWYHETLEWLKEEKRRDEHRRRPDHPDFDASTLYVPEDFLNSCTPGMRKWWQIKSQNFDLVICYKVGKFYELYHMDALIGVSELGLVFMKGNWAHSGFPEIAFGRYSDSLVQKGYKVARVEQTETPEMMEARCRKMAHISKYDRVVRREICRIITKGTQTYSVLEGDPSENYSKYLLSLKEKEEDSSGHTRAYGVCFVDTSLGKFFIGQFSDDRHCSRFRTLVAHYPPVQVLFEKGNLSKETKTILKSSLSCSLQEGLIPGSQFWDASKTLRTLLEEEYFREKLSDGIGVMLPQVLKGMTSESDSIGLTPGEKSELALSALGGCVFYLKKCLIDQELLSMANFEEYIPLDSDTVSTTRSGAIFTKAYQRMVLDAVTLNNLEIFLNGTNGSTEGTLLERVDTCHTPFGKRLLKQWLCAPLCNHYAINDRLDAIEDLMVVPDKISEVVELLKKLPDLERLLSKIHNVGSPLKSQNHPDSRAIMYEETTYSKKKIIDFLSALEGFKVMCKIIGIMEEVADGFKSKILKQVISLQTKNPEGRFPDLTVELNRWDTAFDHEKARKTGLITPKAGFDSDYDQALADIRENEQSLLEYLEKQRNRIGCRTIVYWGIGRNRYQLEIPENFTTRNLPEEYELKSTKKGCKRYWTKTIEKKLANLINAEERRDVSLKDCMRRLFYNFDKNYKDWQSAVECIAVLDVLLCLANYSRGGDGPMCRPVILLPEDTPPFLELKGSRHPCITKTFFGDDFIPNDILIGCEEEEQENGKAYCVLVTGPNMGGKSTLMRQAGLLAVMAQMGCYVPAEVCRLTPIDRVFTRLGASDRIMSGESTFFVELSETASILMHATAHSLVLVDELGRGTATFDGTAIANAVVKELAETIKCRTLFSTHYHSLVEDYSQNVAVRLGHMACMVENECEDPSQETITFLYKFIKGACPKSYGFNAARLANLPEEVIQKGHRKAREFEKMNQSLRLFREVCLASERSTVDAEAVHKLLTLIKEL
UniProt O94851, whole entry: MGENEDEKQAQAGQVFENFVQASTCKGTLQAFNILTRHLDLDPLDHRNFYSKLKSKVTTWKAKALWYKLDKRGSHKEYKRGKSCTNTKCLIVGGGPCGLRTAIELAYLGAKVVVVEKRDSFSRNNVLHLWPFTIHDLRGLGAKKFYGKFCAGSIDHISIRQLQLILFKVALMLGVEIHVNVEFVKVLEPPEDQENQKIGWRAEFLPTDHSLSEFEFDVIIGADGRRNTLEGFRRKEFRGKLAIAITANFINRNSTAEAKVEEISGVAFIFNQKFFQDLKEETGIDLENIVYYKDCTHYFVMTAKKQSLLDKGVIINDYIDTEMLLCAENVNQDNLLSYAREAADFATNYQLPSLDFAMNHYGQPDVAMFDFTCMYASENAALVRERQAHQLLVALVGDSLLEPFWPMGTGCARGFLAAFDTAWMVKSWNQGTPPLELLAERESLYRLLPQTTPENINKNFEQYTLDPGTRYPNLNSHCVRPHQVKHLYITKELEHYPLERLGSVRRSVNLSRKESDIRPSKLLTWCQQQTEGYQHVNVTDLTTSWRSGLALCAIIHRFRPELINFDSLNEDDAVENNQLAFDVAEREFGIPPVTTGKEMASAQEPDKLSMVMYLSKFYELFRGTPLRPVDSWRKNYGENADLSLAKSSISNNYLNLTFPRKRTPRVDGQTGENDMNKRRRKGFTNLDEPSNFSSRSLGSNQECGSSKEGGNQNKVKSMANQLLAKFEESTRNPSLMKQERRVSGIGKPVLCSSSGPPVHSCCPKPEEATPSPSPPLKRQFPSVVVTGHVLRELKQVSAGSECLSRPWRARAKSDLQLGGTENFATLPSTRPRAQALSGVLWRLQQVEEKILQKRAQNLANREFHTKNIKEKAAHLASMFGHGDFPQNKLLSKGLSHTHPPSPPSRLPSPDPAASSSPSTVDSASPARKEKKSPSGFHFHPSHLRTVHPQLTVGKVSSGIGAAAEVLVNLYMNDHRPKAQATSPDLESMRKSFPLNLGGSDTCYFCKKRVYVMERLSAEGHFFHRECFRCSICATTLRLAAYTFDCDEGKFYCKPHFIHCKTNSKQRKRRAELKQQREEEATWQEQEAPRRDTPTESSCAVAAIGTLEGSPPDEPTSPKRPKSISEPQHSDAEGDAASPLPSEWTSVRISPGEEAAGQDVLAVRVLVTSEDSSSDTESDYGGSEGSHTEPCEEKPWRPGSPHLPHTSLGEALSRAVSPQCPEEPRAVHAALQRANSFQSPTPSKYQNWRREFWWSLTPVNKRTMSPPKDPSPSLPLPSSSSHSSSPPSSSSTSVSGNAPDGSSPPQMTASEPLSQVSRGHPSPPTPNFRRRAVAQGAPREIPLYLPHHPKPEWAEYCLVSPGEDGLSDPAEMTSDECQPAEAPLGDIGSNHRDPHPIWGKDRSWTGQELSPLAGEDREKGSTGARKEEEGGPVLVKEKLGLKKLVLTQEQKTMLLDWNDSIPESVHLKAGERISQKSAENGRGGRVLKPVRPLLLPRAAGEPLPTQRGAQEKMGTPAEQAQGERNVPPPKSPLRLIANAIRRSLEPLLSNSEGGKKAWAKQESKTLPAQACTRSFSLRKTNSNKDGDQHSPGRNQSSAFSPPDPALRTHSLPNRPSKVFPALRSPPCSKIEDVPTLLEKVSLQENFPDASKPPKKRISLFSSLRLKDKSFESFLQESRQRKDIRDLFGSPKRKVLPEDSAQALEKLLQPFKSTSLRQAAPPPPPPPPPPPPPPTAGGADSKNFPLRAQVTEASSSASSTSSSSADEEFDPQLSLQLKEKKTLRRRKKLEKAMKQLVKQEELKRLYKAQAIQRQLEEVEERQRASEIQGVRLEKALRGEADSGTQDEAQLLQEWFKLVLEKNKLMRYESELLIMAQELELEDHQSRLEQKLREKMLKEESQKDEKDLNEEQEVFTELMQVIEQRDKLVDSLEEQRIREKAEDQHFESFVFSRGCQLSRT
UniProt Q71F56: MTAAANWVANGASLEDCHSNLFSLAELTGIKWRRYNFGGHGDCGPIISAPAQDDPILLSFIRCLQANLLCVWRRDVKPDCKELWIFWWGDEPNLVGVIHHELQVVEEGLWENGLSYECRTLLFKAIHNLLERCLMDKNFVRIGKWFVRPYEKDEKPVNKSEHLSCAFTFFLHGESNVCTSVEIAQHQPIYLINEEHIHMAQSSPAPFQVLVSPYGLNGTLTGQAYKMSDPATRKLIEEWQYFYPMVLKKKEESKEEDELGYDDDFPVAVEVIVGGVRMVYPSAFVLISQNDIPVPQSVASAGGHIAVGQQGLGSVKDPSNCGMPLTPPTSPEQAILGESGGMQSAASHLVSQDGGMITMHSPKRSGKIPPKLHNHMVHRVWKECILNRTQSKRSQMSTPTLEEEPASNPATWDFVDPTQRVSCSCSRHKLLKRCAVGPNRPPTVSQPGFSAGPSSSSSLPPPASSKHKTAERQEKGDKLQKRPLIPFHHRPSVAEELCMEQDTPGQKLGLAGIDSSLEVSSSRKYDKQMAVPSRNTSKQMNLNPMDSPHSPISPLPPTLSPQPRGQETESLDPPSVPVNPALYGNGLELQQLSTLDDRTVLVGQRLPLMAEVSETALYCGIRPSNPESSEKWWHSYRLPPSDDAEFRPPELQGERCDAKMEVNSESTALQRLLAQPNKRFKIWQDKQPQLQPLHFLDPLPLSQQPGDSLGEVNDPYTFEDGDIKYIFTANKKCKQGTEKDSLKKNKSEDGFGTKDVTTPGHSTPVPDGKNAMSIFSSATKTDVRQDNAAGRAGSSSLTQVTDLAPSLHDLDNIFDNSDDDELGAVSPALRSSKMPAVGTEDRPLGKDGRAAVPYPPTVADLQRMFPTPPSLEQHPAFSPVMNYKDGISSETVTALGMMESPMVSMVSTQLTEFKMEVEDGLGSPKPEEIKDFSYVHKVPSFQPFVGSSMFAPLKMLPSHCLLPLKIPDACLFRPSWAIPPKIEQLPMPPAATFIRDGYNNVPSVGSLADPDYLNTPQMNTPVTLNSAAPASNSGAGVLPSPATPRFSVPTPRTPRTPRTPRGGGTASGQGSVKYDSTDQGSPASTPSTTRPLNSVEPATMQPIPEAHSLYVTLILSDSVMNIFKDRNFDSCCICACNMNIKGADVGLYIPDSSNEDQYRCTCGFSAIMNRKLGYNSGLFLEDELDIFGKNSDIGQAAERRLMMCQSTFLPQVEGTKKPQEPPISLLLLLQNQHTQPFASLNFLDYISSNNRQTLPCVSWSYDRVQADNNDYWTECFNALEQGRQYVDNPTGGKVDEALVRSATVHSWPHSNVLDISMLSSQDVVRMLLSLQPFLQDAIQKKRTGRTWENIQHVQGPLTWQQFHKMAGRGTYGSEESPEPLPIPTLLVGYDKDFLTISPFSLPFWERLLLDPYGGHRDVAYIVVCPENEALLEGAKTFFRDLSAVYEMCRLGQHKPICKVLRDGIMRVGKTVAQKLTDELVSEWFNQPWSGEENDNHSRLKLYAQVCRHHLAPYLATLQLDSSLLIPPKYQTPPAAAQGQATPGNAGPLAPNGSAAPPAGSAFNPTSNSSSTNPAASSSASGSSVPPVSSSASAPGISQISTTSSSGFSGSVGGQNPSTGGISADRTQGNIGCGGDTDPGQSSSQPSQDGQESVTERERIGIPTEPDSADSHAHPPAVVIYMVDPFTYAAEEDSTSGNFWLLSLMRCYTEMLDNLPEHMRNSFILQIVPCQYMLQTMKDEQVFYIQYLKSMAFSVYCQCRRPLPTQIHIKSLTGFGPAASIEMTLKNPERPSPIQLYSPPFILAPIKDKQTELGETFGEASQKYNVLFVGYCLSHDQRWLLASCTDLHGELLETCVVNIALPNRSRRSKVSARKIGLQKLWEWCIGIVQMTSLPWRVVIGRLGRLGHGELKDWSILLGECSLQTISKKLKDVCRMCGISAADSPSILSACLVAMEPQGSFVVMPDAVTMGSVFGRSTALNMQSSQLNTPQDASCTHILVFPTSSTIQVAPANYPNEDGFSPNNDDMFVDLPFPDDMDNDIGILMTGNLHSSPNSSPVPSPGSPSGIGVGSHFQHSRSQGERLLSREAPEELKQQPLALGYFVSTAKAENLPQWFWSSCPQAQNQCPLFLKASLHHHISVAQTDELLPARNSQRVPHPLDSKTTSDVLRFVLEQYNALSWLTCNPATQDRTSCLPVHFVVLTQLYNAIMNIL

Compound: COc1ccc(Cn2ccc3cc(C)c(C(=O)NO)cc32)cc1
Assay: dose-dependent thermal stabilisation call (2D-TPP, DLPTP, 10% FDR) (binary (1 = stabilised)); higher = stabilised by the compound
Settings: system: HL-60 intact cells; concentration range 0.04-10 µM
Protocol: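 2D thermal proteome profiling in intact HL-60 cells treated with BRD-3811 (0, 0.04, 0.29, 2, 10 uM) for 90 min at 37 C, then heated 3 min at one of 12 temperatures (42-63.9 C). Soluble protein was quantified by TMT10 MS. The value is the DLPTP call of the paper: dose-dependent thermal stabilisation over all temperatures at 10% FDR (F-test of a dose-response against a flat model); one experiment, one call per tested protein.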

Row | Target | dose-dependent thermal stabilisation call
1 | MED8 (UniProt Q96G25) | inactive: 0
2 | MNAT1 (UniProt P51948) | inactive: 0
3 | MSH6 (UniProt P52701) | inactive: 0
4 | MICAL2 (UniProt O94851) | inactive: 0
5 | MRPL47 (UniProt Q9HD33) | inactive: 0
6 | MRPL41 (UniProt Q8IXM3) | inactive: 0
7 | MRPS7 (UniProt Q9Y2R9) | inactive: 0
8 | MED13L (UniProt Q71F56) | inactive: 0
9 | MTHFD1L (UniProt Q6UB35) | inactive: 0
